Consider two molecules from paper PMC4044952.

These are yes or no findings as the source states them, for the method shown. In cells and extracts the contact can be indirect. Some binding calls cover weakened binding; strength is not graded here. Sequences can lack the tags named with a protein.

Common to all, as to assay: co-IP; S2 cells transfected with the indicated constructs, lysed in RIPA buffer with protease inhibitors; immunoprecipitation with Dynabeads and antibodies to Myc or GFP (anti-HA also listed); Western blots probed with antibodies to GFP or Myc; input 2% of lysate
Background: Immunoblotting shows a protein as a band on a membrane.

The target in test [1] is T1, Drosophila HA-Parkin (Drosophila) (UniProt Q7KTX7).
T1 sequence: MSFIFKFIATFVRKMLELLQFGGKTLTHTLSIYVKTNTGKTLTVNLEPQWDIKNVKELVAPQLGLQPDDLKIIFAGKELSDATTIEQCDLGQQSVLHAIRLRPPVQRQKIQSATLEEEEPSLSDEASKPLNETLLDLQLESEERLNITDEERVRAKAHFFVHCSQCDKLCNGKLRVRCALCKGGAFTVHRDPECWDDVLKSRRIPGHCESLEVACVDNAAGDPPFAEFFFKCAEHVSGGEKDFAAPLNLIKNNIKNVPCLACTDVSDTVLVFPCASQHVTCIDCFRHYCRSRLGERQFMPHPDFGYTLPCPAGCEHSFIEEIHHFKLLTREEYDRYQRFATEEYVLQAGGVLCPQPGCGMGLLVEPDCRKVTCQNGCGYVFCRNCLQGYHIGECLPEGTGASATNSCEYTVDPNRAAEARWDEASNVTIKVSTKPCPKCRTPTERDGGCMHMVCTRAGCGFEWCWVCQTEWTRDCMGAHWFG

Test [2] deals with T2, Drosophila MUL1-GFP (Mitochondrial ubiquitin ligase 1, CG1134, fused to GFP) (Drosophila) (UniProt Q9VZJ9).
T2 sequence: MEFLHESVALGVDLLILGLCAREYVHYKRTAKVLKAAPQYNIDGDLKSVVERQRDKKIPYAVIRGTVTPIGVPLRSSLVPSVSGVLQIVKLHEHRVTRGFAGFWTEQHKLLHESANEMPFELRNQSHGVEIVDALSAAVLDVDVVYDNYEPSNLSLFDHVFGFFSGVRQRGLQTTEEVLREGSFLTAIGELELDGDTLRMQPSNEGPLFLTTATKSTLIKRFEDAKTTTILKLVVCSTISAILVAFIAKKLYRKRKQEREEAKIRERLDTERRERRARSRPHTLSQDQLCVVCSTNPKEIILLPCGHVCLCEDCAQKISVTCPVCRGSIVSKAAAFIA

The target of test [3] is T3, Drosophila Mfn-myc (Mitofusin, also called Marf, CG3869, fused to a myc tag) (Drosophila) (UniProt Q7YU24).
T3 sequence: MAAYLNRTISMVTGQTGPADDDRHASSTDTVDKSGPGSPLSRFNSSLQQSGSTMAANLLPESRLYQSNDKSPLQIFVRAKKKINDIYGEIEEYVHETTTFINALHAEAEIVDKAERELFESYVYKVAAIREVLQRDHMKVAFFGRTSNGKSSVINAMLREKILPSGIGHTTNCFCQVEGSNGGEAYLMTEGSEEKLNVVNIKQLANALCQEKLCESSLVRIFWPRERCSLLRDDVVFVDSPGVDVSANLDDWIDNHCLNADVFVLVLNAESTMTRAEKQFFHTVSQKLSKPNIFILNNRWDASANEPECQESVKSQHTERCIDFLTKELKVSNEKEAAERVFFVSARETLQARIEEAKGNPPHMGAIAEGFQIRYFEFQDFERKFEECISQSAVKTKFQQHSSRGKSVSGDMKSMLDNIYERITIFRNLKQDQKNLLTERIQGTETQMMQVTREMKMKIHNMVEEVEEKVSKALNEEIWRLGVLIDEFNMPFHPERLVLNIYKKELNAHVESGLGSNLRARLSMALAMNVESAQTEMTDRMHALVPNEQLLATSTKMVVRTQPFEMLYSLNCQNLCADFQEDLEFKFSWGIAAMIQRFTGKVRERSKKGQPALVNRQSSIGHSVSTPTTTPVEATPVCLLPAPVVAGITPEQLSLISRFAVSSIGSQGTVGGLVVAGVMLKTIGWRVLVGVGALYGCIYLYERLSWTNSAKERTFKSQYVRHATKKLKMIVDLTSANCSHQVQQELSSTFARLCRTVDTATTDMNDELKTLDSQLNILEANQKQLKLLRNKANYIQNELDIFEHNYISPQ

B1: Drosophila Mfn-myc (Mitofusin, also called Marf, CG3869, fused to a myc tag) (protein, UniProt Q7YU24 1-810)
chain: MAAYLNRTISMVTGQTGPADDDRHASSTDTVDKSGPGSPLSRFNSSLQQSGSTMAANLLPESRLYQSNDKSPLQIFVRAKKKINDIYGEIEEYVHETTTFINALHAEAEIVDKAERELFESYVYKVAAIREVLQRDHMKVAFFGRTSNGKSSVINAMLREKILPSGIGHTTNCFCQVEGSNGGEAYLMTEGSEEKLNVVNIKQLANALCQEKLCESSLVRIFWPRERCSLLRDDVVFVDSPGVDVSANLDDWIDNHCLNADVFVLVLNAESTMTRAEKQFFHTVSQKLSKPNIFILNNRWDASANEPECQESVKSQHTERCIDFLTKELKVSNEKEAAERVFFVSARETLQARIEEAKGNPPHMGAIAEGFQIRYFEFQDFERKFEECISQSAVKTKFQQHSSRGKSVSGDMKSMLDNIYERITIFRNLKQDQKNLLTERIQGTETQMMQVTREMKMKIHNMVEEVEEKVSKALNEEIWRLGVLIDEFNMPFHPERLVLNIYKKELNAHVESGLGSNLRARLSMALAMNVESAQTEMTDRMHALVPNEQLLATSTKMVVRTQPFEMLYSLNCQNLCADFQEDLEFKFSWGIAAMIQRFTGKVRERSKKGQPALVNRQSSIGHSVSTPTTTPVEATPVCLLPAPVVAGITPEQLSLISRFAVSSIGSQGTVGGLVVAGVMLKTIGWRVLVGVGALYGCIYLYERLSWTNSAKERTFKSQYVRHATKKLKMIVDLTSANCSHQVQQELSSTFARLCRTVDTATTDMNDELKTLDSQLNILEANQKQLKLLRNKANYIQNELDIFEHNYISPQ
B1: the binding entry in test [1] and in test [2] was “binds” each time.

B2: Drosophila MUL1-GFP (Mitochondrial ubiquitin ligase 1, CG1134, fused to GFP) (protein, UniProt Q9VZJ9 1-338)
chain: MEFLHESVALGVDLLILGLCAREYVHYKRTAKVLKAAPQYNIDGDLKSVVERQRDKKIPYAVIRGTVTPIGVPLRSSLVPSVSGVLQIVKLHEHRVTRGFAGFWTEQHKLLHESANEMPFELRNQSHGVEIVDALSAAVLDVDVVYDNYEPSNLSLFDHVFGFFSGVRQRGLQTTEEVLREGSFLTAIGELELDGDTLRMQPSNEGPLFLTTATKSTLIKRFEDAKTTTILKLVVCSTISAILVAFIAKKLYRKRKQEREEAKIRERLDTERRERRARSRPHTLSQDQLCVVCSTNPKEIILLPCGHVCLCEDCAQKISVTCPVCRGSIVSKAAAFIA
Consider B2, for which the binding entry in test [3] is on record as “binds”.
